# Article doi:10.1101/2024.10.08.616723
# Protein sequences, listed by entry. Tags and fused reporters are not part of them.
# UniProt Q96LD4: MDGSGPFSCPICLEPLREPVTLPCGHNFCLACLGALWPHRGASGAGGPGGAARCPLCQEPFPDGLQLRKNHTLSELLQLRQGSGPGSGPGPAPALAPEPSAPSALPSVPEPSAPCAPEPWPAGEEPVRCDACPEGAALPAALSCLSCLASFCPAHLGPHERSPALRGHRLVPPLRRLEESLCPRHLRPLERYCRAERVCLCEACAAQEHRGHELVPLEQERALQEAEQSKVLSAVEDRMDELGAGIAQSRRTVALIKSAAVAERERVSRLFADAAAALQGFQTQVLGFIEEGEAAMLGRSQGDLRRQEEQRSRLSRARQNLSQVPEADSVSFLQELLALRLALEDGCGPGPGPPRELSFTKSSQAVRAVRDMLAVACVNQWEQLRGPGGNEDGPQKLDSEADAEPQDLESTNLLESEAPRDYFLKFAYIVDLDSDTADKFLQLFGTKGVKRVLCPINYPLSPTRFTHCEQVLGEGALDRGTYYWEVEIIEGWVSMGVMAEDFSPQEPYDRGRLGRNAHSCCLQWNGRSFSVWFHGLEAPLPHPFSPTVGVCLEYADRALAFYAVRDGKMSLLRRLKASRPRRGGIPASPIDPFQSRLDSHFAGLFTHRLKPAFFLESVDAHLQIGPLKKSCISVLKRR
# UniProt Q14145: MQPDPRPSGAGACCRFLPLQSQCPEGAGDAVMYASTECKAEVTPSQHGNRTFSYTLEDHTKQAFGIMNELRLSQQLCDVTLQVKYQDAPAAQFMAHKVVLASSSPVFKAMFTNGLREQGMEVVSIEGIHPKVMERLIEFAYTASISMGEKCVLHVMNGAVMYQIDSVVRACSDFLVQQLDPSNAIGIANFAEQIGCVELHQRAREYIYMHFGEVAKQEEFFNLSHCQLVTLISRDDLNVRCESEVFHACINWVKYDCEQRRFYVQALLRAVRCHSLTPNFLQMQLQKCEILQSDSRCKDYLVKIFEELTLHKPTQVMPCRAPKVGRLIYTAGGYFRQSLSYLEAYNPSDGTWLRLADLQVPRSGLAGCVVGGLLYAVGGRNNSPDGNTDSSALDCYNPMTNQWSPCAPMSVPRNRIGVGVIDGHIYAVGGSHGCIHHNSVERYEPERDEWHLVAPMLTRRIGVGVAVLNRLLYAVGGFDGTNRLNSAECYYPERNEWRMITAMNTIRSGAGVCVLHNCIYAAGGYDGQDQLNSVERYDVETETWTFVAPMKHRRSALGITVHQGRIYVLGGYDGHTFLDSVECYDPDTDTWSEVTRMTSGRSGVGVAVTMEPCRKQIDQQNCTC
# These are yes or no findings as the source states them, for the method shown. Binding seen in cells or lysates may run through a third protein. Some results given as binding are weak or reduced against the parent protein; the word gives no strength.
# Target: TRIM47-myc-Flag (human TRIM47, Myc-DDK-tagged) (human) (UniProt Q96LD4)
# Assay: co-IP
substance,measurement,value
KEAP1-Flag (from UniProt Q14145 1-624),binding,binds
